Measured values as given in PMC5998047.
Results are given in words; binding and its absence hold for the method and conditions named. Binding seen in cells or lysates may run through a third protein. Some binding calls cover weakened binding; strength is not graded here.

Chains of the proteins cited; added tags and fusions are not shown.
UniProt Q9HBA0: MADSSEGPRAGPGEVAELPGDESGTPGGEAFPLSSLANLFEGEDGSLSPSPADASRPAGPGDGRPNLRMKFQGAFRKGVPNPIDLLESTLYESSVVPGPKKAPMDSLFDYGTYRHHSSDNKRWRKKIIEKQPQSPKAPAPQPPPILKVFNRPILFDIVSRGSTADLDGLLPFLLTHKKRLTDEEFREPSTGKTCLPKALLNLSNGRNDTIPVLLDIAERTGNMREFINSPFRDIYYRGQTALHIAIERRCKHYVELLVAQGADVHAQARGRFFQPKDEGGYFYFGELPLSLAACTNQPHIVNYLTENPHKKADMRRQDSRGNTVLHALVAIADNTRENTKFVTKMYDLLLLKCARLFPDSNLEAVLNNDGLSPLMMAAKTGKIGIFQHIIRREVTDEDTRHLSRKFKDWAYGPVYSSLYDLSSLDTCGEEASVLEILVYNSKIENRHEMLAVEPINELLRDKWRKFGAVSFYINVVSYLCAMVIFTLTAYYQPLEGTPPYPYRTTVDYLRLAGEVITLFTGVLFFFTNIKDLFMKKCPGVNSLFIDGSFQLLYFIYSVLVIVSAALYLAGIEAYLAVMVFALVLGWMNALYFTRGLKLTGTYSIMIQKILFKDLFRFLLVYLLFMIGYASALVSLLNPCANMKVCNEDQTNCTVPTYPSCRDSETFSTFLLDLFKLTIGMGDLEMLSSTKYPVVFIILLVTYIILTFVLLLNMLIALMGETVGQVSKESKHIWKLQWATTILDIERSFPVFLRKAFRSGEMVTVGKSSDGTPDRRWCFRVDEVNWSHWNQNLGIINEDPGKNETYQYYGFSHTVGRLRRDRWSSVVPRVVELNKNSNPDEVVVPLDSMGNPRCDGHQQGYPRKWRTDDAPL
UniProt O00571: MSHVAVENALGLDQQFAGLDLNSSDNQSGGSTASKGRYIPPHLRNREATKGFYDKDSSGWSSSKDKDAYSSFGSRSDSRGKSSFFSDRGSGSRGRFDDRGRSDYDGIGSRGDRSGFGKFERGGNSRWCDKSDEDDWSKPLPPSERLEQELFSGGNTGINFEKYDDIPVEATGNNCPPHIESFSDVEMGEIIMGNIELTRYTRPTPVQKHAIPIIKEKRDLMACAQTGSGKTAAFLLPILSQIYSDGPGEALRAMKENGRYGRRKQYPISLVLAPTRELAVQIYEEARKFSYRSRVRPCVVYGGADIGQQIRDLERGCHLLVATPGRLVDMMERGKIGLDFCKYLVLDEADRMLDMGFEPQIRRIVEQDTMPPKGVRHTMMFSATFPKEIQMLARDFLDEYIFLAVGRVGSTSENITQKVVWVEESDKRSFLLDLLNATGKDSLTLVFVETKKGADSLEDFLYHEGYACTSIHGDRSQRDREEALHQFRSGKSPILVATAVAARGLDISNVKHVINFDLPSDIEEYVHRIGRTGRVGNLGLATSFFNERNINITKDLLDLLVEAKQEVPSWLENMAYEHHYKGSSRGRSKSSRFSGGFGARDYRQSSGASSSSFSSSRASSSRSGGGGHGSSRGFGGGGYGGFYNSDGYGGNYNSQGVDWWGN

What was measured:
TRPV4-V5(tag) (human) = TRPV4-V5(tag) (human) (UniProt Q9HBA0); assay: co-IP; HEK293 cells overexpressing TRPV4-V5 and DDX3X-Myc; lysate (0.5% NP40, 150 mM NaCl) with anti-V5 antibody overnight at 4 C, protein G beads; DDX3X detected by blot; control and GSK1016790A-treated cells (band reduced with GSK1016790A)
TRPV4-CFP (human) = TRPV4-CFP (human) (UniProt Q9HBA0); assay: FRET or BRET; acceptor photobleaching FRET in HeLa cells expressing TRPV4-CFP and DDX3X-YFP (or free soluble YFP); CFP increase after YFP bleaching; control or 10 nM GSK1016790A
DDX3X-Myc(tag) = DDX3X-Myc(tag) (UniProt O00571); assay: co-IP; reversed co-IP in HEK293 cells: anti-Myc antibody to immunoprecipitate DDX3X, anti-V5 antibody to detect TRPV4
[1] = target: endogenous TRPV4 (Huh7 cells) (human (endogenous in Huh7)) (UniProt Q9HBA0); assay: co-IP; endogenous proteins, lysate of about 2.3 x 10^8 Huh7 cells; anti-TRPV4 antibody (against the final 20 aa of human TRPV4) overnight, protein G beads; blot with anti-DDX3X; control and GSK1016790A-treated cells (interaction reduced with GSK1016790A)

## DDX3X-Myc(tag) (from UniProt O00571 1-662) (enzyme)
TRPV4-V5(tag) (human)
  binding: binds

## DDX3X-YFP (from UniProt O00571 1-662) (enzyme)
TRPV4-CFP (human)
  binding: binds

## TRPV4-V5(tag) (from UniProt Q9HBA0 1-871) (receptor)
DDX3X-Myc(tag)
  binding: binds

## endogenous DDX3X (Huh7 cells) (from UniProt O00571 1-662) (enzyme)
[1]
  binding: binds
